Measured values taken from PubChem BioAssay AID248 (DTP/NCI, 2004).
The list shows only some results of the screen, not a fair sample: its compounds were picked by chemical class. Not every dose and run of a compound is shown. T/C: endpoint of the treated group in % of that of the vehicle group. Where survival is the endpoint, this PubChem deposit counts one and a half times the control or more as active, and values a quarter to a half above the control carry no call in these data; other NCI protocols may use other cut-offs. Some T/C values are marked as having no survivor count here; that says nothing about deaths at the dose. Schedule codes are those of the source, taken here to give the interval after Q, in days (D) or hours (H), and the number of doses after X. Some entries hold several experiments; the results are listed from low to high. Some schedule codes hold Z or #, which are not explained here.

Test system: L1210 leukemia ip in BDF1 mice, survival T/C
Assay: NCI In Vivo Anticancer Drug Screen. Data for tumor model L1210 Leukemia (intraperitoneal) in B6D2F1 (BDF1) mice
Details: T/C endpoint: mean survival time, higher T/C = longer survival

Compound: NC(Cc1ccccc1N(CCCl)CCCl)C(=O)O (stereo unspecified)
- T/C (dose: 1.6 mg/kg/injection, schedule: Q01DX009 (sc), vehicle: saline): 132 % of control [survivor count not shown]
- T/C (dose: 1.6 mg/kg/injection, schedule: Q03HX008 (ip), vehicle: saline): 117 % of control [survivor count not shown]
- T/C (dose: 1.75 mg/kg/injection, schedule: Q01DX001 (ip), vehicle: carboxymethylcellulose (CMC)): 112 [survivor count not shown] and 131 % of control [survivor count not shown]
- T/C (dose: 1.75 mg/kg/injection, schedule: Q07DX Z (ip), vehicle: carboxymethylcellulose (CMC)): 178 % of control [survivor count not shown]
- T/C (dose: 2.0 mg/kg/injection, schedule: Q01DX001 (ip), vehicle: saline): 137 % of control [survivor count not shown]
- T/C (dose: 2.0 mg/kg/injection, schedule: Q01DX006 (iv), vehicle: carboxymethylcellulose (CMC)): 111 % of control [survivor count not shown]
- T/C (dose: 2.0 mg/kg/injection, schedule: Q01DX010 (ip), vehicle: saline): 94 % of control [survivor count not shown]
- T/C (dose: 2.0 mg/kg/injection, schedule: Q01DX Z (im), vehicle: carboxymethylcellulose (CMC)): 129 % of control [survivor count not shown]
- T/C (dose: 2.0 mg/kg/injection, schedule: Q01DX Z (ip), vehicle: carboxymethylcellulose (CMC)): 124 % of control [survivor count not shown]
- T/C (dose: 2.0 mg/kg/injection, schedule: Q01DX Z (ip), vehicle: methylcellulose (MC)): 119 % of control [survivor count not shown]
- T/C (dose: 2.0 mg/kg/injection, schedule: Q01DX Z (oral), vehicle: carboxymethylcellulose (CMC)): 92 % of control [survivor count not shown]
- T/C (dose: 2.0 mg/kg/injection, schedule: Q01DX Z (sc), vehicle: carboxymethylcellulose (CMC)): 140 % of control [survivor count not shown]
- T/C (dose: 2.0 mg/kg/injection, schedule: Q03HX016 (ip), vehicle: saline): 125 % of control [survivor count not shown]
- T/C (dose: 2.0 mg/kg/injection, schedule: Q03HX024 (ip), vehicle: saline): 148 % of control [survivor count not shown]
- T/C (dose: 2.0 mg/kg/injection, schedule: Q03HX024 (oral), vehicle: saline): 115 % of control [survivor count not shown]
- T/C (dose: 2.0 mg/kg/injection, schedule: Q04DX003 (ip), vehicle: saline): 198 % of control [survivor count not shown]
- T/C (dose: 2.0 mg/kg/injection, schedule: Q04DX003 (oral), vehicle: saline): 115 % of control [survivor count not shown]
- T/C (dose: 2.0 mg/kg/injection, schedule: Q08DX002 (ip), vehicle: saline): 129 [survivor count not shown] and 223 % of control [survivor count not shown]
- T/C (dose: 2.0 mg/kg/injection, schedule: Q08DX002 (oral), vehicle: saline): 112 % of control [survivor count not shown]
- T/C (dose: 2.4 mg/kg/injection, schedule: Q03HX024 (ip), vehicle: saline): 130 % of control [survivor count not shown]
- T/C (dose: 2.4 mg/kg/injection, schedule: Q04DX003 (ip), vehicle: saline): 161 % of control [survivor count not shown]
- T/C (dose: 2.8 mg/kg/injection, schedule: Q01DX001 (sc), vehicle: saline): 97 % of control [survivor count not shown]
- T/C (dose: 3.2 mg/kg/injection, schedule: Q01DX001 (ip), vehicle: saline): 130 % of control [survivor count not shown]
- T/C (dose: 3.2 mg/kg/injection, schedule: Q01DX001 (oral), vehicle: saline): 104 % of control [survivor count not shown]
- T/C (dose: 3.2 mg/kg/injection, schedule: Q01DX009 (sc), vehicle: saline): 164 % of control [survivor count not shown]
- T/C (dose: 3.2 mg/kg/injection, schedule: Q03HX008 (ip), vehicle: saline): 124 % of control [survivor count not shown]
- T/C (dose: 3.5 mg/kg/injection, schedule: Q01DX001 (ip), vehicle: carboxymethylcellulose (CMC)): 146 [survivor count not shown], 151 [survivor count not shown], 238 % of control [survivor count not shown]
- T/C (dose: 3.5 mg/kg/injection, schedule: Q07DX Z (ip), vehicle: carboxymethylcellulose (CMC)): 236 [survivor count not shown] and 247 % of control [survivor count not shown]
- T/C (dose: 4.0 mg/kg/injection, schedule: Q01DX001 (ip), vehicle: saline): 249 % of control [survivor count not shown]
- T/C (dose: 4.0 mg/kg/injection, schedule: Q01DX006 (iv), vehicle: carboxymethylcellulose (CMC)): 137 [survivor count not shown] and 177 % of control [survivor count not shown]
- T/C (dose: 4.0 mg/kg/injection, schedule: Q01DX Z (im), vehicle: carboxymethylcellulose (CMC)): 88 [survivor count not shown] and 137 % of control [survivor count not shown]
- T/C (dose: 4.0 mg/kg/injection, schedule: Q01DX Z (oral), vehicle: carboxymethylcellulose (CMC)): 86 % of control [survivor count not shown]
- T/C (dose: 4.0 mg/kg/injection, schedule: Q01DX Z (sc), vehicle: carboxymethylcellulose (CMC)): 107 [survivor count not shown] and 124 % of control [survivor count not shown]
- T/C (dose: 4.0 mg/kg/injection, schedule: Q03HX016 (ip), vehicle: saline): 141 [survivor count not shown] and 244 % of control [survivor count not shown]
- T/C (dose: 4.0 mg/kg/injection, schedule: Q03HX024 (ip), vehicle: saline): 275 % of control [survivor count not shown]
- T/C (dose: 4.0 mg/kg/injection, schedule: Q03HX024 (oral), vehicle: saline): 117 % of control [survivor count not shown]
- T/C (dose: 4.0 mg/kg/injection, schedule: Q04DX003 (ip), vehicle: saline): 119 % of control [survivor count not shown]
- T/C (dose: 4.0 mg/kg/injection, schedule: Q04DX003 (oral), vehicle: saline): 137 % of control [survivor count not shown]
- T/C (dose: 4.0 mg/kg/injection, schedule: Q08DX002 (ip), vehicle: saline): 201 [survivor count not shown] and 207 % of control [survivor count not shown]
- T/C (dose: 4.0 mg/kg/injection, schedule: Q08DX002 (oral), vehicle: saline): 100 % of control [survivor count not shown]
- T/C (dose: 5.6 mg/kg/injection, schedule: Q01DX001 (sc), vehicle: saline): 122 % of control [survivor count not shown]
- T/C (dose: 6.4 mg/kg/injection, schedule: Q01DX001 (ip), vehicle: saline): 198 % of control [survivor count not shown]
- T/C (dose: 6.4 mg/kg/injection, schedule: Q01DX001 (oral), vehicle: saline): 112 % of control [survivor count not shown]
- T/C (dose: 6.4 mg/kg/injection, schedule: Q03HX008 (ip), vehicle: saline): 144 % of control [survivor count not shown]
- T/C (dose: 7.0 mg/kg/injection, schedule: Q01DX001 (ip), vehicle: carboxymethylcellulose (CMC)): 156 [survivor count not shown] and 162 % of control [survivor count not shown]
- T/C (dose: 8.0 mg/kg/injection, schedule: Q01DX001 (oral), vehicle: saline): 108 % of control [survivor count not shown]
- T/C (dose: 8.0 mg/kg/injection, schedule: Q01DX006 (iv), vehicle: carboxymethylcellulose (CMC)): 101 % of control [survivor count not shown]
- T/C (dose: 8.0 mg/kg/injection, schedule: Q03HX008 (ip), vehicle: saline): 232 % of control [survivor count not shown]
- T/C (dose: 8.0 mg/kg/injection, schedule: Q03HX008 (oral), vehicle: saline): 114 % of control [survivor count not shown]
- T/C (dose: 8.0 mg/kg/injection, schedule: Q03HX016 (ip), vehicle: saline): 203 % of control [survivor count not shown]
- T/C (dose: 8.0 mg/kg/injection, schedule: Q03HX016 (oral), vehicle: saline): 119 % of control [survivor count not shown]
- T/C (dose: 8.0 mg/kg/injection, schedule: Q03HX024 (oral), vehicle: saline): 148 % of control [survivor count not shown]
- T/C (dose: 8.0 mg/kg/injection, schedule: Q04DX003 (oral), vehicle: saline): 116 % of control [survivor count not shown]
- T/C (dose: 8.0 mg/kg/injection, schedule: Q08DX002 (ip), vehicle: saline): 205 % of control [survivor count not shown]
- T/C (dose: 8.0 mg/kg/injection, schedule: Q08DX002 (oral), vehicle: saline): 121 % of control [survivor count not shown]
- T/C (dose: 11.2 mg/kg/injection, schedule: Q01DX001 (sc), vehicle: saline): 138 % of control [survivor count not shown]
- T/C (dose: 12.8 mg/kg/injection, schedule: Q01DX001 (ip), vehicle: saline): 319 % of control [survivor count not shown]
- T/C (dose: 12.8 mg/kg/injection, schedule: Q01DX001 (oral), vehicle: saline): 127 % of control [survivor count not shown]
- T/C (dose: 12.8 mg/kg/injection, schedule: Q03HX008 (ip), vehicle: saline): 264 % of control [survivor count not shown]
- T/C (dose: 14.0 mg/kg/injection, schedule: Q01DX001 (ip), vehicle: carboxymethylcellulose (CMC)): 93 % of control [survivor count not shown]
- T/C (dose: 28.0 mg/kg/injection, schedule: Q01DX001 (ip), vehicle: carboxymethylcellulose (CMC)): 87 [survivor count not shown] and 94 % of control [survivor count not shown]
